Test results published in patent US20130078718A1, “CONVERSION OF VASCULAR ENDOTHELIAL CELLS INTO MULTIPOTENT STEM-LIKE CELLS” (PRESIDENT AND FELLOWS OF HARVARD COLLEGE, priority 2010, published 2013).
For at least one compound, name, drawing or mass did not settle the structure.

System: HUVECs
Experiment: Assessment of EndMT inhibitors (immunoblotting)
Type: cell-based, human
Details: dorsomorphin 5 μM, BMP7 10 ng ml−1, VEGF 25 ng ml−1
Description: Human umbilical vein endothelial cells (HUVEC) and human cutaneous microvascular endothelial cells (HCMEC) isolated as previously described (35). Cells were tested for purity and found to express no markers for lymphatic endothelial cells or stromal cells (pericytes, smooth muscle cells, etc.) (36). This was reconfirmed by flow cytometry analysis (data not shown). Clonal populations were isolated with PYREX 8×8 mm cloning cylinders (Corning) and shown to respond in a manner identical to that of the cultures used for our experiments (FIG. 25B-D). Cells were grown in culture using EGM-2 medium (Cambrex), containing 10% FBS and 1% Penicillin/Streptomycin, followed by human endothelial serum free medium (Gibco) 24 h prior to all experimental conditions. Bone marrow derived mesenchymal stem cells (ScienCell Research Laboratories) were grown in mesenchymal stem cell medium (ScienCell Research Laboratories). Bone marrow derived hematopoietic stem cells (Lonza) were grown in HPGM medium (Lonza). Human corneal fibroblasts, from a stock provided by Dr. Elizabeth Hay (Harvard Medical School), were grown in RPMI medium, containing 10% FBS and 1% Penicillin/Streptomycin. Primary human osteoblasts, chondrocytes, and adipocytes and their respective growth media were obtained from Cell Applications, Inc. […] Images were acquired using a Nikon 80i fluorescence microscope.

SMILES: c1cc(-c2cnn3cc(-c4ccc(OCCN5CCCCC5)cc4)cnc23)ccn1 [dorsomorphin, reference compound]
- TGF-β2-induced changes in CD31, FSP-1 and CD44 expression (immunoblots) (HUVECs): inhibition of TGF-β2-induced decreases in CD31 and increases in FSP-1 and CD44 expression
- effect on EndMT (inhibitor): blocked EndMT
